# Among all 59,000 compounds or so, about 35 (0.06%) were called active. This list was built around the results that the source calls inconclusive (neither active nor inactive); the mix of calls is not that of the screen. Cut-off read from the data, not from the text of the source: active = max dye-equivalent concentration above about 10 nM; inconclusive = between about 1.1 nM and that limit; inactive = weaker than that.
# Experiment: qHTS Assay for Spectroscopic Profiling in Texas Red Spectral Region
# Settings: Compound fluorescence, Texas Red channel, 547/618 nm; stronger effect = higher value
# Method in brief: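 Compound titrations in 100 mM Tris pH 8.0 were incubated 15 min at room temperature and read at 547 nm excitation / 618 nm emission. Texas Red six-point standard curve on each plate converted fluorescence to dye-equivalent concentration.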
row,Structure (SMILES),max dye-equivalent concentration
1,Cc1cc(O)ccc1-c1cnc2ccccc2n1,inconclusive: 1.1 nM
2,COc1ccc2c(c1)C(C)=CC(C)(C)N2C(=O)CNCc1ccc2c(c1)OCO2,inconclusive: 1.1 nM
3,COc1cc([C@@H]2[C@H]3CN(C)CC=C3C(C#N)=C(N)C2(C#N)C#N)cc2c1OCO2,inactive
4,O=P1(Nn2cnnc2)C=C(c2ccccc2)OC(c2ccccc2)=C1,inconclusive: 1.5 nM
5,CC12C(=O)N(c3nccs3)C(=O)C1C1C=CC2C1 (stereo not given),inconclusive: 1.8 nM
6,Nc1nc2n[nH]nc2c(=O)[nH]1,inconclusive: 1.3 nM
7,O=C1CCC[C@H]1C(=O)Nc1ccc2ccccc2c1,inactive
8,CC(=O)[C@@]1(O)Cc2c(O)c3c(c(O)c2[C@H](O[C@H]2C[C@H](N)[C@H](O)[C@H](C)O2)C1)C(=O)c1ccccc1C3=O,inconclusive: 4.7 nM
9,Cc1ccnn2c(-c3ccccc3)c3c(=O)n(C)c(=O)n(C)c3c12,inactive
10,CCn1c(C)nc2cc(-c3nnc(-c4c(-c5ccccc5)noc4C)o3)ccc21,inconclusive: 1.7 nM
11,O=S(=O)(c1ccccc1)N1C2CCC1CC(O)(c1cccnc1)C2 (stereo not given),inconclusive: 1.1 nM
12,CCC(=O)Nc1c(-c2cccs2)c(=O)c2ccccc2n1C,inconclusive: 1.3 nM
13,Cn1c(N)c(S(=O)(=O)c2ccc(Br)cc2)c2nc3ccccc3nc21,inconclusive: 1.5 nM
14,CS(=O)(=O)c1ccc2nc(NC(=O)C3COc4ccccc4O3)sc2c1 (stereo not given),inconclusive: 1.6 nM
15,COc1ccc(-c2nc3cnc(N4CCNCC4)nc3n(CCC#N)c2=O)cc1,inactive
16,Cc1nc(-c2ccccc2)cc(=O)[nH]1,inconclusive: 1.8 nM
17,Clc1ccc(CN2C3=NCCCN3c3ccccc32)cc1,inconclusive: 1.2 nM
18,O=C(c1ccc(N2C(=O)C3CC=C(Cl)CC3C2=O)cc1)N1CCCCC1 (stereo not given),inactive
19,CN1C(=O)C2(OCC(COc3ccc(Cl)cc3)O2)c2ccccc21 (stereo not given),inconclusive: 1.5 nM
20,CCN(C(=O)c1cn(C)c(=O)c2cc(OC)c(OC)cc12)c1cc(OC)ccc1OC,inconclusive: 1.3 nM
21,COc1ccc(Oc2ncc3ncc(=O)n(C4CC4)c3n2)cc1,inactive
22,COc1ccc(-n2nnc3c(=O)n(Cc4cccc(C)c4)cnc32)cc1,inconclusive: 1.3 nM
23,COc1ncc2nc(-c3ccc(Cl)cc3)c(=O)n(CCC#N)c2n1,inactive

# Random excerpt: 2 records from the list, in no set order.
row,Structure (SMILES),max dye-equivalent concentration
13,Cn1c(N)c(S(=O)(=O)c2ccc(Br)cc2)c2nc3ccccc3nc21,inconclusive: 1.5 nM
4,O=P1(Nn2cnnc2)C=C(c2ccccc2)OC(c2ccccc2)=C1,inconclusive: 1.5 nM

# More records:

row,Structure (SMILES),max dye-equivalent concentration
1,O=C(CN(C(=O)c1ccco1)c1cccc(F)c1)NCc1ccc(F)cc1,inconclusive: 1.5 nM
2,O=C(c1ccc(Cl)cc1)c1ccccc1C(=O)N1CCOCC1,inconclusive: 2 nM
3,Cc1cc(C)c2c(CN3CCN(CCO)CC3)cc(=O)oc2c1,inconclusive: 1.3 nM
4,COc1ccccc1CNC(=O)C1CCCN(S(C)(=O)=O)C1 (stereo not given),inconclusive: 1.1 nM
5,CCCCCCOC(=O)C(C#N)c1nc2ccccc2nc1N1CCOCC1 (stereo not given),inactive
6,NC(=O)c1ccc(NC(=O)CCCc2nc(-c3ccccc3Cl)no2)cc1,inconclusive: 2.2 nM
7,O=C(NC1CCCCC1)C1c2ccccc2C(=O)N1Cc1ccco1 (stereo not given),inconclusive: 2.1 nM
8,COc1ccc(Cc2nnc(SC)[nH]c2=O)cc1OC,inconclusive: 1.6 nM
9,CCOC(=O)CS(=O)(=O)c1nc(-c2ccc(F)cc2)cc(C(F)(F)F)n1,inconclusive: 1.7 nM
10,COc1ccc(C2=NOC(CN3C(=O)c4ccccc4S3(=O)=O)C2)cc1 (stereo not given),inconclusive: 2.5 nM
11,COc1ccc(CNc2nc(-c3ccc(N(C)C)cc3)nc3ccccc23)c(OC)c1,inactive
12,O=C(NCCN1CCOCC1)c1c(F)c(F)c(F)c(F)c1F,inconclusive: 1.3 nM
13,O=C(O)C[C@@H]1CCCc2ccccc2[C@H]1O,inactive
14,Nc1nc2ccc(Cl)cc2c2nc(-c3ccco3)nn12,inconclusive: 1.4 nM
15,c1cncc(-c2nn3c(Cn4cnc5ccccc54)nnc3s2)c1,inconclusive: 3.6 nM
16,O=C(CN1CCN(C2CCCCC2)CC1)Nc1ccccc1-c1ccccc1,inconclusive: 2 nM
17,CSCCC(NS(=O)(=O)/C=C/c1ccccc1)C(=O)N1CCC(C)CC1 (stereo not given),inconclusive: 2.3 nM
18,O=C(c1cccs1)c1ccc(-c2cccs2)s1,inconclusive: 1.1 nM
19,CCCCOc1ccc(/C(O)=C2/C(=O)C(=O)N(CCCOC)C2c2ccncc2)cc1 (stereo not given),inconclusive: 1.4 nM
20,Cn1cc(Cl)c(C(=O)Nc2cccc(Cl)c2Cl)n1,inconclusive: 1.9 nM
21,CCC(Sc1ccc2nnc(-c3ccc(F)cc3)n2n1)C(=O)O (stereo not given),inconclusive: 1.1 nM
22,O=C(O)CCc1ccc(-c2ccc(Cl)cc2)n1Cc1ccco1,inconclusive: 2.3 nM
23,CCOCCCn1c(=S)[nH]c2cc3c(cc2c1=O)OCO3,inconclusive: 1.7 nM

row,Structure (SMILES),max dye-equivalent concentration
1,COC(=O)c1[nH]c2cc(C)ccc2c1NC(=O)CN1CCc2cc(OC)c(OC)cc2C1,inconclusive: 2.7 nM
2,O=C(O)CNC1=NCCC1,inconclusive: 1.9 nM
3,COc1ccc(Cl)cc1NC(=O)CN1CCC(n2nnc3ccccc32)CC1,inconclusive: 1.5 nM
4,Cc1ccc(S(=O)(=O)C(F)(F)F)cc1NC(=O)c1cccnc1,inconclusive: 1.1 nM
5,COc1ccc(OC)c(Nc2nc(-c3ccc(O)c(O)c3)cs2)c1,inconclusive: 1.1 nM
6,NS(=O)(=O)c1ccc(CNC(=O)c2ccc(Br)o2)cc1,inconclusive: 1.1 nM
7,FC(F)(F)c1ccccc1-c1ccc2ncnc(NCc3cccs3)c2c1,inactive
8,COc1ccc2nc(SCC(=O)N(C)C3CCCCC3)c(C#N)cc2c1,inconclusive: 1.2 nM
9,CC(C(=O)NC1=NCCS1)N1C(=O)C2CC=CCC2C1=O (stereo not given),inconclusive: 1.2 nM
10,Cc1cc(Oc2ccc(-c3ccccc3)cc2)n2ncnc2n1,inconclusive: 1.4 nM
11,O=C(N=c1nc2ccccn2s1)c1ccccc1,inconclusive: 1.3 nM
12,CC(C)(C)c1cc(C(c2cccnc2)N2CCN(CCO)CC2)cc(C(C)(C)C)c1O (stereo not given),inconclusive: 2.3 nM
13,CCCCOC(=O)C(C)Nc1n[nH]c(=O)[nH]c1=O (stereo not given),inconclusive: 1.1 nM
14,Cc1ccc2c(C)nc(NC3=NCN(CCc4ccccc4)CN3)nc2c1,inconclusive: 1.1 nM
15,CNc1ncnc2ccc(-c3ccccc3C#N)cc12,inactive
16,CCC(C)(C)n1nnnc1C(c1cc2cccc(C)c2[nH]c1=O)N1CCCC1 (stereo not given),inconclusive: 1.8 nM
17,CCSc1nnc(NC(=O)c2cc(C)oc2C)s1,inconclusive: 1.5 nM
18,Cc1ccc(N2C(=O)c3cccc4c(N5CCN(C)CC5)ccc(c34)C2=O)c2cccnc12,inactive
19,Cc1cc(C)c2cc3c(ccn3C3OC[C@H](O)[C@H](O)[C@H]3O)cc2n1 (stereo not given in full),inconclusive: 1.2 nM
20,CCOCCCNC(=O)c1c(C)c(C(=O)OCC)n(C)c1C,inconclusive: 1.1 nM
21,CC(C)Cc1nc(SCC(=O)NCc2ccccc2)n[nH]1,inconclusive: 1.5 nM
22,Cc1csc(=N)n1CC(=O)N1CCc2ccccc21,inconclusive: 1.1 nM
23,O=C(CN(C(=O)CCC(=O)Nc1ccccn1)c1ccc2c(c1)OCCO2)NCCc1ccccc1,inconclusive: 2.2 nM

row,Structure (SMILES),max dye-equivalent concentration
1,CN(C(=O)c1cc2sccc2n1C)C1CCCCC1,inconclusive: 1.1 nM
2,CC(C)OC(=O)c1nn2c(C(F)(F)F)cc(-c3ccc(Br)o3)nc2c1Br,inactive
3,NCCCCNS(=O)(=O)c1cccc2c(Cl)cccc12,inconclusive: 1.6 nM
4,OCCN1CCOCCN(CCO)CCOCC1,inconclusive: 1.4 nM
5,CCOc1ccccc1NC(=O)C1CCCN(S(=O)(=O)c2ccc(OC)c(C)c2)C1 (stereo not given),inconclusive: 1.3 nM
6,O=C(CN(C(=O)c1cc2c(s1)CCC2)C1CCCC1)NCc1cccs1,inconclusive: 2.1 nM
7,O=C1CN(C(=O)CC2c3ccccc3-c3ccccc32)CC(=O)N1,inconclusive: 1.4 nM
8,CN1CCC[C@@H]1c1cccnc1,inconclusive: 1.3 nM
9,O=C(Nc1ccccc1)N1CC[C@@]2(CCCN(C(=O)c3ccncc3)C2)C1,inconclusive: 1.2 nM
10,COc1cccc(-c2nnc(SCC(=O)N3CCCC3=O)n2-c2ccccc2)c1,inconclusive: 2.7 nM
11,c1ccc(CC2CCN(c3nc4ccccc4n4nnnc34)CC2)cc1,inactive
12,COc1cccc(-n2nnnc2SCC(=O)N2CCCc3ccccc32)c1,inactive
13,Cc1ccc(S(=O)(=O)Cn2nnnc2C(c2ccccn2)N2CCN(c3ccccc3)CC2)cc1 (stereo not given),inconclusive: 1.8 nM
14,Cc1nc(N2C(=O)C(=O)/C(=C(/O)c3ccccc3)C2c2ccco2)sc1C (stereo not given),inconclusive: 1.1 nM
15,CCN1C(=S)SC(=O)C1=C1C=C(C)OC(C)=C1,inconclusive: 1.7 nM
16,CCOc1c(CNCCNC(=O)c2nonc2N)cccc1OC,inconclusive: 1.5 nM
17,COc1cc2c(cc1OC)[C@H](c1ccccc1)CN(C)CC2,inconclusive: 1.5 nM
18,CCCC(=O)Nc1ccc(NC(=O)Cc2ccccc2)cn1,inactive
19,c1nc(N2CCNCC2)c2cc(-c3ccc4c(c3)OCO4)ccc2n1,inconclusive: 1.2 nM
20,COc1ccc(OC)c(S(=O)(=O)N(C)CC(=O)N2CCc3ccccc3C2)c1,inactive
21,COc1ccccc1-c1noc(CCC(=O)Nc2ccccc2Cl)n1,inconclusive: 1.3 nM

# Gathered by group, the compounds so far with a halogen.
row,Structure (SMILES),max dye-equivalent concentration
13,Cn1c(N)c(S(=O)(=O)c2ccc(Br)cc2)c2nc3ccccc3nc21,inconclusive: 1.5 nM
17,Clc1ccc(CN2C3=NCCCN3c3ccccc32)cc1,inconclusive: 1.2 nM
18,O=C(c1ccc(N2C(=O)C3CC=C(Cl)CC3C2=O)cc1)N1CCCCC1 (stereo not given),inactive
19,CN1C(=O)C2(OCC(COc3ccc(Cl)cc3)O2)c2ccccc21 (stereo not given),inconclusive: 1.5 nM
23,COc1ncc2nc(-c3ccc(Cl)cc3)c(=O)n(CCC#N)c2n1,inactive
1,O=C(CN(C(=O)c1ccco1)c1cccc(F)c1)NCc1ccc(F)cc1,inconclusive: 1.5 nM
2,O=C(c1ccc(Cl)cc1)c1ccccc1C(=O)N1CCOCC1,inconclusive: 2 nM
6,NC(=O)c1ccc(NC(=O)CCCc2nc(-c3ccccc3Cl)no2)cc1,inconclusive: 2.2 nM
9,CCOC(=O)CS(=O)(=O)c1nc(-c2ccc(F)cc2)cc(C(F)(F)F)n1,inconclusive: 1.7 nM
12,O=C(NCCN1CCOCC1)c1c(F)c(F)c(F)c(F)c1F,inconclusive: 1.3 nM
14,Nc1nc2ccc(Cl)cc2c2nc(-c3ccco3)nn12,inconclusive: 1.4 nM
20,Cn1cc(Cl)c(C(=O)Nc2cccc(Cl)c2Cl)n1,inconclusive: 1.9 nM
21,CCC(Sc1ccc2nnc(-c3ccc(F)cc3)n2n1)C(=O)O (stereo not given),inconclusive: 1.1 nM
22,O=C(O)CCc1ccc(-c2ccc(Cl)cc2)n1Cc1ccco1,inconclusive: 2.3 nM
3,COc1ccc(Cl)cc1NC(=O)CN1CCC(n2nnc3ccccc32)CC1,inconclusive: 1.5 nM
4,Cc1ccc(S(=O)(=O)C(F)(F)F)cc1NC(=O)c1cccnc1,inconclusive: 1.1 nM
6,NS(=O)(=O)c1ccc(CNC(=O)c2ccc(Br)o2)cc1,inconclusive: 1.1 nM
7,FC(F)(F)c1ccccc1-c1ccc2ncnc(NCc3cccs3)c2c1,inactive
2,CC(C)OC(=O)c1nn2c(C(F)(F)F)cc(-c3ccc(Br)o3)nc2c1Br,inactive
3,NCCCCNS(=O)(=O)c1cccc2c(Cl)cccc12,inconclusive: 1.6 nM
21,COc1ccccc1-c1noc(CCC(=O)Nc2ccccc2Cl)n1,inconclusive: 1.3 nM

# Source: PubChem BioAssay AID587 (National Center for Advancing Translational Sciences (NCATS), 2007)
